{"source": "patent US10709159B2", "about": "“Increasing the bioavailability of flavan-3-ols with carbohydrates with a low glycemic index” (NESTEC S.A., priority 2012, dated 2020)", "origin": "cited, not measured here"}
{"conditions": "relative to glucose; cited from earlier work"}
{"smiles": "O=C[C@H](O)[C@@H](O)[C@@H](O)[C@H](O)CO", "note": "[galactose]", "glycemic index (GI)": 23}
{"smiles": "OC[C@@H](O)[C@@H](O)[C@H](O)[C@@H](O)CO", "note": "[sorbitol, D-sorbitol]", "glycemic index (GI)": 4}
{"smiles": "OC[C@@H](O)[C@H](O)[C@@H](O)CO", "note": "[xylitol]", "glycemic index (GI)": 7}
